The values that follow come from the supplement of paper PMC5407854, “Inhibitor of ppGalNAc-T3-mediated O-glycosylation blocks cancer cell invasiveness and lowers FGF23 levels” (eLife, 2017).

Some of the results follow. Most entries show no effect beyond the scatter of the controls.

One experiment concerns ppGalNAc-T3 sensor. Nature of the experiment: T3 sensor activation Q score (MG/GFP ratio z-score vs DMSO controls) (SD units); higher = more sensor activation (inhibition of ppGalNAc-T3 glycosylation). The settings on record: HEK293 sensor cells; 10 µM; 6 h. As to the method:
(§1)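 Cells were treated with compound at 10 uM for 6 h, then MG/GFP ratio was read by flow cytometry (10,000 cells per well, duplicate wells). Q = (R - R_neg)/SD_neg relative to DMSO vehicle controls; the signal rises when the glycosyltransferase is inhibited.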
`CC(=O)C(=C(C)O)c1nc2ccccc2[nH]1`: the “T3 sensor activation Q score” value amounted to 1.05.
Same read-out and setting: the result for `CC(C)c1ccc(C(=O)c2ccccc2C(=O)O)cc1` reads 1.27; that for `NC(=O)c1ccc(NC(=O)C2CC2(c2ccccc2)c2ccccc2)cc1` (stereo not given), 0.075.
On to `COc1cc(N)c(C)cc1NC(C)=O`, for which the “T3 sensor activation Q score” value was -0.01.
Take `COCc1nc2c(c(=O)[nH]1)C1(CCCCC1)Cc1ccccc1-2`: the “T3 sensor activation Q score” value worked out at 0.58.
On to `C=CCOc1cc(C)nc(-c2ccccc2O)n1`, for which the “T3 sensor activation Q score” value is -0.355.
With `O=S1(=O)CCC(N2CCCCC2)C1` (stereo not given), the “T3 sensor activation Q score” value was 2.45.
`COc1ccccc1C(=O)Nc1ccc(-c2nc3cc(C)ccc3o2)cc1`: the “T3 sensor activation Q score” value was 0.23.
In the case of `CC(O)C#CCN(Cc1ccccc1)C(C)C` (stereo not given), the “T3 sensor activation Q score” value was -0.12.
Still for that read-out and setting: under `CN1CCC(O)(c2ccccc2)C(C)(C)C1` (stereo not given) stands 0.485.
Still for that read-out and setting: the result for `COc1cc(NC(=O)Cc2ccccc2)c(OC)cc1Cl` reads -0.215; that for `COc1ccc2c(Cl)c(C(=O)O)sc2c1`, -0.93.
The same measure, in the same setting: the result for `Cn1c(COc2ccccc2Br)nc2ccccc21` reads 0.075; that for `CN1CCN(C/C=C/c2ccccc2[N+](=O)[O-])CC1`, 0.32; that for `CCN(CC)C(=O)C1CCCN(Cc2ccccc2)C1` (stereo not given), 0.78.
As to `COc1cc(OC)c(OC)cc1CN1CCN(c2cc(C)ccc2C)CC1`, the “T3 sensor activation Q score” value turned out to be 0.765.
Take `COc1ccc(-n2ccc3ccccc32)cc1`: the “T3 sensor activation Q score” value was -0.66.
`CC(=O)Nc1ccc(S(=O)(=O)NCCc2ccccc2)cc1`: the “T3 sensor activation Q score” value worked out at 0.245.
The same measure, in the same setting: under `O=[N+]([O-])c1cccnc1N1CCOCC1` stands 0.375.
As for `O=C(C(c1ccccc1)c1ccccc1)N1CCCC1`, the “T3 sensor activation Q score” value is -0.3.
With `CN1CCCN(Cc2ccccc2)CC1`, the “T3 sensor activation Q score” value turned out to be 0.695.
On to `CC(=O)Nc1ccc(S(=O)(=O)N2CCCCC2)cc1`, for which the “T3 sensor activation Q score” value worked out at 0.205.
On the same count and under the same terms, the result for `Nc1ccc2oc(-c3ccc(Cl)cc3)nc2c1` reads 0.6.
As for `COc1ccc(C(=O)c2cccc([N+](=O)[O-])c2)cc1`, the “T3 sensor activation Q score” value was determined as 1.09.
Consider `CCN(CC)C(=O)C1CCCN(Cc2cccc(Cl)c2)C1` (stereo not given), for which the “T3 sensor activation Q score” value was determined as 0.34.
The same measure, in the same setting: the result for `COc1ccccc1N1C(=O)CC(N(C)Cc2ccccc2)C1=O` (stereo not given) reads -0.705.
Turning to `CCc1ccccc1NC(=O)c1ccc(-c2ccccc2)cc1`, the “T3 sensor activation Q score” value is -0.025.
Still for that read-out and setting: the result for `Cc1ccc(S(=O)(=O)c2ccccc2)cc1S(N)(=O)=O` reads -0.58; that for `OC(CN1CCOCC1)CN(c1ccccc1)c1ccccc1` (stereo not given), 1.75.
Consider `Cc1ccc2[nH]c3c(c2c1)CN(C)CC3`, for which the “T3 sensor activation Q score” value was -0.845.
Turning to `Cc1c(Cl)cccc1NC(=O)C(c1ccccc1)c1ccccc1`, the “T3 sensor activation Q score” value stood at 0.225.
On the same count and under the same terms, the result for `COc1ccc(OC)c(C(=O)c2ccccc2)c1` reads 0.355; that for `COc1cc2c(cc1OC)CN(Cc1ccc(Br)cc1)CC2`, 0.42; that for `CCCCOc1ccc(CC(=N)N)cc1Cl`, -0.525.
Same read-out and setting: under `Cc1cc(N2CCOCC2)nc(-c2ccccc2O)n1` stands -0.06.
For the compound `O=C(O)c1ccccc1C(=O)c1ccc(F)c(F)c1`, the “T3 sensor activation Q score” value was -0.465.
Same read-out and setting: the result for `C=CCN1C(=O)C(O)=C(C(C)=O)C1c1ccc(Br)cc1` (stereo not given) reads 0.09.
With `O=C(Nc1ccc(Cl)cc1Cl)c1cnccn1`, the “T3 sensor activation Q score” value is -0.285.
Still for that read-out and setting: the result for `Cc1ccc(C)c(NS(=O)(=O)c2ccc(Cl)cc2)c1` reads 0.945; that for `Nc1cccc(C(=O)Nc2ccccc2Cl)c1`, -0.35.

The test system of the next experiment is ppGalNAc-T2 sensor. Kind of experiment: T2 sensor activation Q score (MG/GFP ratio z-score vs DMSO controls) (SD units); higher = more sensor activation (inhibition of ppGalNAc-T2 glycosylation). The conditions noted are these: HEK293 sensor cells; 10 µM; 6 h. As to the method:
as §1
For `CC(=O)C(=C(C)O)c1nc2ccccc2[nH]1`, the “T2 sensor activation Q score” value is -0.83.
Turning to `CC(C)c1ccc(C(=O)c2ccccc2C(=O)O)cc1`, the “T2 sensor activation Q score” value is -0.065.
For the compound `NC(=O)c1ccc(NC(=O)C2CC2(c2ccccc2)c2ccccc2)cc1` (stereo not given), the “T2 sensor activation Q score” value is -0.02.
The same measure, in the same setting: under `COc1cc(N)c(C)cc1NC(C)=O` stands -0.28.
Still for that read-out and setting: under `COCc1nc2c(c(=O)[nH]1)C1(CCCCC1)Cc1ccccc1-2` stands 0.105.
Still for that read-out and setting: the result for `C=CCOc1cc(C)nc(-c2ccccc2O)n1` reads 1.06.
Turning to `O=S1(=O)CCC(N2CCCCC2)C1` (stereo not given), the “T2 sensor activation Q score” value came out at 1.05.
As to `COc1ccccc1C(=O)Nc1ccc(-c2nc3cc(C)ccc3o2)cc1`, the “T2 sensor activation Q score” value was -0.96.
The same measure, in the same setting: the result for `CC(O)C#CCN(Cc1ccccc1)C(C)C` (stereo not given) reads -0.99; that for `CN1CCC(O)(c2ccccc2)C(C)(C)C1` (stereo not given), -0.695; that for `COc1cc(NC(=O)Cc2ccccc2)c(OC)cc1Cl`, -0.02.
As to `COc1ccc2c(Cl)c(C(=O)O)sc2c1`, the “T2 sensor activation Q score” value is -1.2.
The same measure, in the same setting: the result for `Cn1c(COc2ccccc2Br)nc2ccccc21` reads 0.36.
As to `CN1CCN(C/C=C/c2ccccc2[N+](=O)[O-])CC1`, the “T2 sensor activation Q score” value is -0.83.
On the same count and under the same terms, the result for `CCN(CC)C(=O)C1CCCN(Cc2ccccc2)C1` (stereo not given) reads -1.02; that for `COc1cc(OC)c(OC)cc1CN1CCN(c2cc(C)ccc2C)CC1`, 0.64.
For `COc1ccc(-n2ccc3ccccc32)cc1`, the “T2 sensor activation Q score” value was 0.66.
Same read-out and setting: the result for `CC(=O)Nc1ccc(S(=O)(=O)NCCc2ccccc2)cc1` reads -0.665; that for `O=[N+]([O-])c1cccnc1N1CCOCC1`, -0.795.
Take `O=C(C(c1ccccc1)c1ccccc1)N1CCCC1`: the “T2 sensor activation Q score” value was -1.25.
In the case of `CN1CCCN(Cc2ccccc2)CC1`, the “T2 sensor activation Q score” value is -0.44.
As to `CC(=O)Nc1ccc(S(=O)(=O)N2CCCCC2)cc1`, the “T2 sensor activation Q score” value is -1.83.
Still for that read-out and setting: under `Nc1ccc2oc(-c3ccc(Cl)cc3)nc2c1` stands -0.48; under `COc1ccc(C(=O)c2cccc([N+](=O)[O-])c2)cc1`, 1.82.
Take `CCN(CC)C(=O)C1CCCN(Cc2cccc(Cl)c2)C1` (stereo not given): the “T2 sensor activation Q score” value is -0.275.
`COc1ccccc1N1C(=O)CC(N(C)Cc2ccccc2)C1=O` (stereo not given): the “T2 sensor activation Q score” value was -1.29.
Turning to `CCc1ccccc1NC(=O)c1ccc(-c2ccccc2)cc1`, the “T2 sensor activation Q score” value was -0.16.
Same read-out and setting: under `Cc1ccc(S(=O)(=O)c2ccccc2)cc1S(N)(=O)=O` stands 0.08.
Same read-out and setting: under `OC(CN1CCOCC1)CN(c1ccccc1)c1ccccc1` (stereo not given) stands 2.87; under `Cc1ccc2[nH]c3c(c2c1)CN(C)CC3`, 0.87.
`Cc1c(Cl)cccc1NC(=O)C(c1ccccc1)c1ccccc1`: the “T2 sensor activation Q score” value was 0.76.
The same measure, in the same setting: under `COc1ccc(OC)c(C(=O)c2ccccc2)c1` stands 0.145; under `COc1cc2c(cc1OC)CN(Cc1ccc(Br)cc1)CC2`, -0.285.
Same read-out and setting: under `CCCCOc1ccc(CC(=N)N)cc1Cl` stands -0.17.
Same read-out and setting: the result for `Cc1cc(N2CCOCC2)nc(-c2ccccc2O)n1` reads 2.66.
For `O=C(O)c1ccccc1C(=O)c1ccc(F)c(F)c1`, the “T2 sensor activation Q score” value was determined as 0.82.
Still for that read-out and setting: the result for `C=CCN1C(=O)C(O)=C(C(C)=O)C1c1ccc(Br)cc1` (stereo not given) reads -0.61.
`O=C(Nc1ccc(Cl)cc1Cl)c1cnccn1`: the “T2 sensor activation Q score” value was 0.78.
Still for that read-out and setting: under `Cc1ccc(C)c(NS(=O)(=O)c2ccc(Cl)cc2)c1` stands -1.03; under `Nc1cccc(C(=O)Nc2ccccc2Cl)c1`, -0.525.
